According to patent publication US12648571B2 (University of Puerto Rico, priority 2020, dated 2026):
No end group written: not given here.

Experiment: peptide made by a vendor
Settings: whole synthesis

Substance	purity (crude or final not stated) [% purity]
ILGPVLGLVSDTLDDVLGIL-OH	95
ILGPVLGLVSDTLDDVLGILC-OH	95
